This note sets out measurements from ChEMBL document CHEMBL3085627 (J Med Chem, 2013).

Amino acid sequences for entries named in this document (tags omitted).
UniProt P14416, whole entry: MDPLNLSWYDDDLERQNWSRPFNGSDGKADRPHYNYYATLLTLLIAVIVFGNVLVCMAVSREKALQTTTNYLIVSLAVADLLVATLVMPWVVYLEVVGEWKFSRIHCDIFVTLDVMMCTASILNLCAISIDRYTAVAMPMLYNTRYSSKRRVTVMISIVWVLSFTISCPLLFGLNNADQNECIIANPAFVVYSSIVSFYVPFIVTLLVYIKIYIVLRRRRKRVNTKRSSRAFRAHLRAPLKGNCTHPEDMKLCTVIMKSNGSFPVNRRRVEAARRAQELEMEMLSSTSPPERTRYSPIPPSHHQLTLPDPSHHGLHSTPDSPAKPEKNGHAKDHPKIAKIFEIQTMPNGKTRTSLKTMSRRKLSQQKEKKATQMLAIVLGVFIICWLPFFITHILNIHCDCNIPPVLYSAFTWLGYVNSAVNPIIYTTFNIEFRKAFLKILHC

This test concerns the target D(2) dopamine receptor (Homo sapiens, UniProt P14416). As to the kind of experiment: Displacement of [3H]-spiperone from human dopamine D2L receptor expressed in CHO cell membranes after 3 hrs by liquid scintillation counting analysis. An outline of the steps:
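Competition against the radiolabeled antagonist [3H]spiperone at human D2L receptor in FlpIn CHO cell membranes. Affinity is reported as Ki.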
For orientation: Loss of bound radioactivity is the signal in a displacement assay; it reports binding, not function.

pKi: −log10 of the molar value.

As a reminder, the pKi is the negative decadic logarithm of the Ki, by convention in mol/L. The low end stands for a high Ki, the high end for a low Ki.

Molecule `CC(=O)N[C@H]1CC[C@H](CCN2CCc3ccccc3C2)CC1` showed a pKi of 5.22.
